The supplement of paper PMC6078165
± gives the standard deviation of the averaged measurements. The reference is the same well before dosing, and untreated signal decays as well.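 Labels refer to human fibroblasts, largely primary: uterine (C12385, HUF), lung (H6013), bone (Hs27A), adrenal (HADF), skin (WS1), plus mammary HMF and breast cancer-associated Hs343T. Cancer lines are basal-like or mesenchymal-like triple-negative breast cancer. The paper counts as hits responses shifting over 3x the replicate standard deviation. The tissue of the other fibroblasts is not given here.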

Test system: MDAMB436
Assay: relative JC-1 red fluorescence (viability) vs pre-drug, coculture with fibroblast (fraction); higher = more viable cancer cells
Details: 1 µM
Procedure: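 JC-1 labelled TNBC cells cocultured 1:1 (1,500 cells each) with CellTrace Violet stained primary or stromal fibroblasts in 384-well plates in FluoroBrite medium, treated with one of 42 anticancer drugs at 0.1, 1, 10 or 100 uM. JC-1 red fluorescence (mitochondrial integrity in cancer cells only) was read by plate reader every 8 h for 72 h. Values are normalised to each well's pre-drug value. The stock of one drug was tenfold lower, so its dose labels may be too high.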

Nc1ncn([C@@H]2O[C@H](CO)[C@@H](O)[C@H]2O)c(=O)n1 [Azacitidine]
relative JC-1 red fluorescence
Details | 8 h | 16 h | 24 h | 32 h | 40 h | 48 h | 56 h | 64 h | 72 h
coculture fibroblast: C12385 | 0.784 ± 0.0083 | 0.675 ± 0.033 | 0.68 ± 0.059 | 0.611 ± 0.059 | 0.574 ± 0.069 | 0.554 ± 0.079 | 0.546 ± 0.085 | 0.536 ± 0.085 | 0.543 ± 0.085
coculture fibroblast: H6013 | 0.804 ± 0.044 | 0.738 ± 0.0082 | 0.7133 ± 0.0032 | 0.697 ± 0.012 | 0.68 ± 0.0097 | 0.69 ± 0.01 | 0.652 ± 0.0098 | 0.631 ± 0.014 | 0.58 ± 0.0061
coculture fibroblast: H6019 | 0.7194 ± 0.004 | 0.669 ± 0.029 | 0.647 ± 0.023 | 0.568 ± 0.02 | 0.534 ± 0.014 | 0.5116 ± 0.005 | 0.474 ± 0.0087 | 0.43813 ± 0.00037 | 0.407 ± 0.0049
coculture fibroblast: H6076 | 0.725 ± 0.0047 | 0.668 ± 0.018 | 0.666 ± 0.03 | 0.616 ± 0.021 | 0.596 ± 0.033 | 0.57 ± 0.035 | 0.582 ± 0.038 | 0.58 ± 0.033 | 0.56 ± 0.035
coculture fibroblast: H6231 | 0.7613 ± 0.004 | 0.674 ± 0.013 | 0.6684 ± 0.0019 | 0.592 ± 0.0097 | 0.566 ± 0.0082 | 0.535 ± 0.013 | 0.5233 ± 0.003 | 0.49 ± 0.0091 | 0.4599 ± 0.0032
coculture fibroblast: HADF | 0.7987 ± 0.0026 | 0.701 ± 0.06 | 0.676 ± 0.07 | 0.659 ± 0.071 | 0.639 ± 0.088 | 0.656 ± 0.092 | 0.605 ± 0.084 | 0.604 ± 0.082 | 0.57 ± 0.064
coculture fibroblast: HCFa | 0.79 ± 0.055 | 0.712 ± 0.029 | 0.682 ± 0.025 | 0.65 ± 0.011 | 0.627 ± 0.011 | 0.63414 ± 0.00017 | 0.5761 ± 0.0016 | 0.5551 ± 0.0007 | 0.5029 ± 0.0022
coculture fibroblast: HCPF | 0.773 ± 0.056 | 0.714 ± 0.029 | 0.702 ± 0.011 | 0.638 ± 0.011 | 0.618 ± 0.01 | 0.579 ± 0.012 | 0.553 ± 0.025 | 0.529 ± 0.034 | 0.504 ± 0.041
coculture fibroblast: HHSteC | 0.8108 ± 0.0073 | 0.756 ± 0.043 | 0.71 ± 0.054 | 0.673 ± 0.057 | 0.663 ± 0.071 | 0.668 ± 0.071 | 0.607 ± 0.081 | 0.579 ± 0.084 | 0.526 ± 0.078
coculture fibroblast: HMF | 0.753 ± 0.0088 | 0.69 ± 0.044 | 0.673 ± 0.07 | 0.635 ± 0.067 | 0.619 ± 0.077 | 0.589 ± 0.084 | 0.577 ± 0.097 | 0.562 ± 0.098 | 0.545 ± 0.1
coculture fibroblast: HPFa | 0.8929 ± 0.0076 | 0.8111 ± 0.0036 | 0.8016 ± 0.0013 | 0.766 ± 0.01 | 0.7587 ± 0.00098 | 0.7745 ± 0.0032 | 0.695 ± 0.0031 | 0.6766 ± 0.0018 | 0.6102 ± 0.0043
coculture fibroblast: HUF | 0.8109 ± 0.0064 | 0.696 ± 0.022 | 0.668 ± 0.027 | 0.592 ± 0.028 | 0.538 ± 0.027 | 0.5 ± 0.029 | 0.472 ± 0.023 | 0.447 ± 0.024 | 0.445 ± 0.021
coculture fibroblast: Hs5 | 0.763 ± 0.035 | 0.72 ± 0.0098 | 0.715 ± 0.024 | 0.669 ± 0.031 | 0.657 ± 0.036 | 0.611 ± 0.039 | 0.635 ± 0.041 | 0.605 ± 0.045 | 0.6 ± 0.045
coculture fibroblast: Hs27A | 0.796 ± 0.018 | 0.739 ± 0.023 | 0.694 ± 0.029 | 0.683 ± 0.032 | 0.663 ± 0.015 | 0.7241 ± 0.0071 | 0.6235 ± 0.0023 | 0.62 ± 0.0078 | 0.5536 ± 0.0044
coculture fibroblast: Hs343T | 0.726 ± 0.024 | 0.657 ± 0.053 | 0.632 ± 0.058 | 0.587 ± 0.064 | 0.562 ± 0.063 | 0.528 ± 0.065 | 0.522 ± 0.064 | 0.498 ± 0.052 | 0.498 ± 0.053
coculture fibroblast: WS1 | 0.754 ± 0.022 | 0.685 ± 0.041 | 0.683 ± 0.029 | 0.605 ± 0.027 | 0.566 ± 0.025 | 0.553 ± 0.03 | 0.535 ± 0.045 | 0.519 ± 0.047 | 0.516 ± 0.051
